Values belong to the binder of their own block, whether it stands above or below them.
Tests used:
hEGFR-Fc [1] = molecular target: T1, hEGFR-Fc (human, UniProt P00533 25-645); assay: SPR (Biacore 3000), hEGFR-Fc captured on rProtein A, fusion protein as analyte, Langmuir 1:1
T1 construct: Captured on rProtein A immobilised on a CM5 chip; not shown: Fc part

hEGFR-Fc [2] = molecular target: T1, hEGFR-Fc; assay: method not given; Example 7 lists SPR on hEGFR-Fc for this Affilin

- Kd (hEGFR-Fc [1]): 26 nM
B1: fusion protein 143276 (designed binder)
chain: MQIFVKTLTYNPMRYGKTITLEVEPSDTIENVKAKIQDKEGIPPDQQRLIWAGKQLEDGRTLSDYNIRNPDILHLVLRLRAASAPAPSAPAASAPPAPAAPAAPAAPASAPAPAPAPAASPSPAAPAPSPACPAPASPASAPSAPASAPPAAPSAACSPAPSAPAPAASPAAAPASAAPASA
notes: EGFR-specific Affilin fused to 2 Ala/Pro/Ser linkers, each with a C-terminal Cys, and a cap; Unlabelled form; also called CID143276; Affilin-(APS-Cys)2-cap

- Kd (hEGFR-Fc [2]): ~20 nM
B2: EGFR-specific Affilin-139819 (designed binder)
chain: MQIFVKTLTYNPMRYGKTITLEVEPSDTIENVKAKIQDKEGIPPDQQRLIWAGKQLEDGRTLSDYNIRNPDILHLVLRLRAA
notes: Ubiquitin mutein used as targeting domain of the EGFR-specific fusion proteins

Reference: US20190117791A1 (NAVIGO PROTEINS, published 2019)
